A short description of this experiment: qHTS Assay for Modulators of Lamin A Splicing. As to conditions: HeLa LMNA splicing GFP/RFP minigene ratio, 48 h. In outline: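 Read-out is the ratio of GFP to DsRed2 object intensity, acquired by 488 nm laser-scanning cytometry on HeLa lamin A-EGFP minigene reporter cells. Compound incubation 48 hrs at 37 °C in Opti-MEM with 2% FBS; DMSO 0.5% final.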
(In qHTS, concentration-response curves come from the screen itself.)

Where [1] appears, read: measured here: GFP splicing reporter channel.
Where [2] appears, read: measured here: RFP viability control channel.

Some of the results follow. Further columns of the screen follow, without active or inactive calls. Most of these compounds were active or inconclusive in the main read-out, so they are no random draw. Potencies come from curve fits of mixed quality, noted in brackets.

The AC50 is the midpoint of the concentration-response curve, whichever way the signal moves. As for `Cc1cc(C)c(COc2ccc(/C=N/n3c(C)n[nH]c3=S)cc2)c(C)c1`, the AC50 by setting is: under setting [1], 35.5 µM [rising, single point]; under setting [2], 35.5 µM [rising, single point]. `Cc1ccc(Cc2nc3ccccc3nc2SCC(=O)N2CCC(C)CC2)cc1`: the AC50 is 0.316 µM [rising, full curve] under setting [1] and 17.8 µM [rising, partial curve, poor fit] under setting [2]. As for `COc1cccc(C(=O)N(CN2CCCC2=O)c2ccccc2OC)c1`, the AC50 is 5.01 µM [rising, partial curve] under setting [1] and 7.08 µM [rising, partial curve] under setting [2]. `COc1ccc(F)cc1CN1CCN(c2cc(C)nc3c4c(C)cc(C)nc4nn23)CC1`: under setting [2], the AC50 was 14.1 µM [rising, single point]. With `COc1ccc(N2CCN(C(=O)CN(c3ccc(Br)cc3)S(C)(=O)=O)CC2)cc1`, the AC50 runs as follows: under setting [1], 12.6 µM [rising, partial curve]; under setting [2], 22.4 µM [rising, single point]. Take `Cc1cccc(N(CC(N)=O)C2SC(=O)NC2=O)c1` (centres undefined): the AC50 under setting [1] was 11.2 µM [falling, partial curve, poor fit].

Regarding `CCCCCCCCC(=O)NNC(=O)c1c(O)c2ccccc2n(CC)c1=O`, the AC50 under setting [2] was 7.08 µM [rising, partial curve]. Regarding `Cc1ccc(NC(=O)NC(=S)NC(=O)c2ccccc2)cc1`, under setting [2], the half-maximal activity concentration (AC50) was 22.4 µM [rising, single point]. For `CCC1Sc2ccccc2N(CC(=O)NCc2ccc(C)cc2)C1=O` (centres undefined), under setting [1], the AC50 is 3.55 µM [rising, partial curve, poor fit]. `Cc1ccc(S(=O)(=O)N2CCN(C(=O)CCC(=O)NCCc3ccc(S(N)(=O)=O)cc3)CC2)c(C)c1`: the AC50 was 0.00316 µM [falling, full curve, poor fit] under setting [1] and 0.00708 µM [falling, full curve] under setting [2]. For `COC(=O)c1ccc(C(=O)OC)c(NC(=S)N2CC(C)CC(C)C2)c1` (centres undefined), the AC50 under setting [2] was 3.98 µM [falling, partial curve]. Take `CN(CCOc1ccc(CC2SC(=O)NC2=O)cc1)c1ccccn1` (centres undefined): the AC50 under setting [1] was 0.00794 µM [falling, full curve]. Turning to `COc1ccc(C(=O)Nc2oc(-c3ccccc3)c(-c3ccccc3)c2C#N)cc1`, the AC50 under setting [2] was 15.8 µM [falling, single point]. `COc1ccc(N2CCN(C(CNS(=O)(=O)c3ccc(OC)c(C)c3)c3ccco3)CC2)cc1` (centres undefined): the AC50 under setting [2] is 0.00316 µM [falling, full curve, poor fit]. With `CC(=O)Nc1ccc(NC(=O)c2ccccc2S(=O)(=O)c2ccccc2[N+](=O)[O-])cc1`, the AC50 under setting [2] is 0.178 µM [rising, full curve, poor fit]. As for `CN(Cc1ccccc1)C(=O)c1oc(=O)c2ccccc2c1-c1ccccc1`, the AC50 is, setting by setting: under setting [1], 35.5 µM [rising, single point]; under setting [2], 35.5 µM [rising, single point]. As for `Cc1cc(C)c2cc(CN(CCO)C(=O)Nc3ccc(F)cc3)c(=O)[nH]c2c1`, the AC50 under setting [1] was 11.2 µM [rising, single point]. Consider `COc1ccc(-c2noc(CCC(=O)O)n2)cc1`, for which the AC50 was 6.31 µM [falling, single point] under setting [1] and 6.31 µM [falling, single point] under setting [2]. Turning to `COc1ccc(C(=O)CSc2nnc(Cn3cnc4ccccc43)o2)cc1`, the AC50 under setting [1] was 5.01 µM [rising, partial curve, poor fit] and the AC50 under setting [2] was 5.62 µM [rising, full curve]. As to `Cc1cc(S(=O)(=O)N(Cc2ccc(C(C)C)cc2)CC2CCCO2)ccc1-n1cnnn1` (centres undefined), the AC50 under setting [2] was 15.8 µM [rising, partial curve]. Take `O=c1c(C=NCc2ccccc2)c(NCc2ccccc2)nc2ccccn12`: the AC50 under setting [2] is 15.8 µM [falling, partial curve]. For the compound `CCCCc1ccc(S(=O)(=O)NCCc2ccncc2)cc1`, the AC50 under setting [2] was 14.1 µM [rising, partial curve]. Consider `CCCS(=O)(=O)c1nc(S(=O)(=O)c2ccc(C)cc2)c(NCc2ccc3c(c2)OCO3)s1`, for which the AC50 is, setting by setting: under setting [1], 14.1 µM [falling, partial curve]; under setting [2], 0.631 µM [falling, full curve, poor fit]. For `Nc1cc(-c2ccncc2)c[nH]c1=O`, the AC50 under setting [1] was 0.178 µM [falling, full curve] and the AC50 under setting [2] was 0.316 µM [falling, full curve, poor fit]. With `O=c1c2ccccc2nc2n1C(CSCc1ccccc1)CS2` (centres undefined), the AC50 by setting is: under setting [1], 7.08 µM [rising, full curve, poor fit]; under setting [2], 11.2 µM [rising, partial curve]. `CC(C)c1ccc(C(O)c2cnc(C(C)C)n2C)cc1` (centres undefined): the AC50 under setting [2] is 22.4 µM [rising, single point]. On to `c1ccc2c(c1)CCCc1cc(NCCN3CCOCC3)nnc1-2`, for which the AC50 under setting [1] is 0.000891 µM [falling, full curve, poor fit] and the AC50 under setting [2] is 0.000891 µM [falling, full curve, poor fit]. Turning to `CCN(CC)S(=O)(=O)c1ccc(N2CCOCC2)c(NC(=O)c2ccccc2)c1`, the AC50 reads like this: under setting [1], 14.1 µM [rising, single point]; under setting [2], 17.8 µM [rising, partial curve]. With `CCOC(=O)c1ccc(N2NC(=O)/C(=C/c3ccc(OC(=O)c4ccco4)c(OC)c3)C2=O)cc1`, the concentration at half-maximal activity (AC50) was 35.5 µM [rising, partial curve] under setting [1] and 22.4 µM [rising, partial curve] under setting [2]. Turning to `COc1ccc(C[C@@H]2c3cc(OC)c(OC)cc3CC[N@+]2(C)CCC(=O)OCCCCCOC(=O)CC[N@@+]2(C)CCc3cc(OC)c(OC)cc3[C@H]2Cc2ccc(OC)c(OC)c2)cc1OC`, the AC50 is, setting by setting: under setting [1], 0.1 µM [rising, full curve, poor fit]; under setting [2], 0.126 µM [rising, partial curve, poor fit]. Consider `NC(=O)CSc1nc(C23CC4CC(CC(C4)C2)C3)nc2ccccc12`, for which the AC50 was 20 µM [falling, partial curve, poor fit] under setting [1] and 25.1 µM [falling, single point] under setting [2].

As for `CC(C)Cn1c(N)c(C(=O)COC(=O)c2ccc3c(c2)OCCO3)c(=O)n(C)c1=O`, the AC50 is 31.6 µM [rising, single point] under setting [1] and 22.4 µM [rising, single point] under setting [2].

For `Cc1cc(Cl)ccc1OC(C)C(=O)Nc1ccccc1N1CCOCC1` (centres undefined), under setting [2], the AC50 was 25.1 µM [rising, single point]. Consider `O=C(NN1C(=O)c2ccccc2C1=O)c1ccncc1`, for which the AC50 under setting [2] is 0.00501 µM [falling, full curve, poor fit].

For `O=C(Nc1cccc([N+](=O)[O-])c1)c1cc2ccccc2cc1O`, the concentration at half-maximal activity (AC50) under setting [2] is 6.31 µM [rising, full curve, poor fit].

As for `Fc1ccc2[nH]c3c(N4CCSCC4)ncnc3c2c1`, under setting [2], the AC50 is 2.51 µM [rising, full curve, poor fit]. In the case of `O=C(NCCC1=CCCCC1)c1cccc2c1C(=O)N(C1CCCCC1)C2`, the AC50 runs as follows: under setting [1], 28.2 µM [falling, partial curve]; under setting [2], 25.1 µM [falling, partial curve].

With `O=C1N/C(=N\N=C\c2cccnc2)SC1Cc1ccc(SC(F)F)cc1` (centres undefined), the AC50 under setting [2] was 7.94 µM [rising, partial curve]. Consider `Cc1cn(C)c(CC(=O)Nc2cccc(C#N)c2)c1C(=O)O`, for which the AC50 was 0.01 µM [falling, full curve, poor fit] under setting [1] and 0.0398 µM [falling, full curve] under setting [2]. For `CCC1(C(=O)c2ccccc2)C(c2ccc([N+](=O)[O-])cc2)C1(C(=O)OC)C(=O)OC` (centres undefined), the AC50 under setting [2] was 3.98 µM [rising, partial curve, poor fit].

Regarding `Cc1ccc2cccc(S(=O)(=O)N3CCN(c4ccccc4F)CC3)c2n1`, the AC50 under setting [2] is 8.91 µM [rising, partial curve, poor fit].

In the case of `Cc1ccc(-c2nn3c(=O)cc(CN4CCN(C(=O)Nc5cccc(C(F)(F)F)c5)CC4)nc3s2)cc1`, under setting [1], the AC50 is 35.5 µM [rising, single point]. `COc1ccc(C(=O)Nc2ccc3cn[nH]c3c2)c(OC)c1`: the AC50 under setting [2] was 0.631 µM [rising, partial curve].

Regarding `CCOC(=O)Cc1ccc(NC(=O)c2ccc([N+](=O)[O-])cc2)cc1`, the AC50 runs as follows: under setting [1], 3.55 µM [rising, partial curve]; under setting [2], 3.16 µM [rising, full curve, poor fit].

Take `O=C(CN(c1ccc(F)cc1)S(=O)(=O)c1ccc2c(c1)OCCO2)NCc1ccncc1`: under setting [2], the AC50 is 0.282 µM [falling, partial curve].

For `COc1ccccc1NC(=O)Cc1csc(NC(=S)Nc2ccccc2)n1`, under setting [2], the AC50 was 35.5 µM [rising, single point]. In the case of `Cc1ccc(OCC(=O)NC(C)c2ccccc2)c([N+](=O)[O-])n1` (centres undefined), the AC50 under setting [1] was 35.5 µM [falling, partial curve, poor fit]. As for `CCn1c(SCC(=O)N/N=C/c2ccc(C)o2)nnc1-c1ccc(C(C)(C)C)cc1`, the AC50 by setting is: under setting [1], 35.5 µM [rising, single point]; under setting [2], 35.5 µM [rising, single point]. For the compound `COc1ccccc1-n1cnnc1SCC(=O)c1cc(C)n(Cc2cccs2)c1C`, the AC50 under setting [1] was 8.91 µM [rising, partial curve] and the AC50 under setting [2] was 10 µM [rising, partial curve]. Take `O=S(=O)(Nc1nc2ccccc2nc1-[n+]1ccccc1)c1ccc(Cl)cc1`: the AC50 under setting [2] was 25.1 µM [rising, partial curve]. Still for that read-out and setting: for `CCOc1cc2[nH]c(=O)n(CCCCC(=O)N3CCN(c4ccccc4OC)CC3)c(=O)c2cc1OCC` the value was 0.355 µM [falling, partial curve, poor fit]. `CCOC(=O)/C=C/COc1ccccc1[N+](=O)[O-]`: the AC50 under setting [1] was 0.00398 µM [rising, full curve, poor fit].

(Values after PubChem BioAssay AID1487 (National Center for Advancing Translational Sciences (NCATS), 2009).)
